This experiment can be described thus: qHTS Assay for Lipid Storage Modulators in Drosophila S3 Cells.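 For cell number change: cells counted by Cell Tracker Red CMTPX staining in the red channel.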 Particulars: BODIPY lipid droplet fluorescence, 18-24 h; for cell number change: measured here: cell count max response, cells fed with added oleic acid. The procedure, abridged: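 Drosophila S3 cells loaded with oleic acid (400 uM, as added) and compounds at several concentrations; lipid droplets imaged by 488-nm laser-scanning cytometry, 500–530 nm intensity and object ratio to cell channel. Percent activity normalized to 20 uM Triacsin C.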
In general terms: qHTS replaces the single test concentration by a dilution series.

Setting [1] is: measured here: cell number channel AC50, cells fed with added oleic acid.
[2] abbreviates: measured here: lipid fluorescence (Fed channel) AC50, cells fed with added oleic acid.

In PubChem BioAssay AID2685 (National Center for Advancing Translational Sciences (NCATS), 2010) one finds cell number change and AC50 data, which are given here for 17 compounds.

The list shows a part of the results. The main result of the screen is listed elsewhere. These columns were measured beside it and carry no call. Most of these compounds were active or inconclusive in the main read-out, so they are no random draw. Potencies come from curve fits of mixed quality, noted in brackets.

For orientation: AC50 means the concentration giving half of the maximal activity seen. In the case of `COc1cccc(/C=C2\SC(=O)NC2=O)c1OCc1ccc(C(=O)O)cc1`, the cell number change is -46.1%. Further, under setting [1], the AC50 is 29.1 µM [falling, single point].

Take `COc1ccc(-c2nnc(SC(C(=O)c3c[nH]c4ccccc34)c3ccccc3)n2N)cc1OC` (stereo not drawn): the AC50 is 4.11 µM [falling, single point] under setting [1] and 18.4 µM [falling, partial curve] under setting [2]. Regarding `O=C(O)CSc1nnc(Cc2ccccc2)n1Cc1ccccc1`, the cell number change turned out to be 2.8%. Also, the AC50 under setting [2] was 4.61 µM [falling, single point]. In the case of `COc1ccc(Cn2cnc3c(N)c(C)c(C)cc32)cc1`, the cell number change was 21.6%. For `Cc1cc(C)c2nc(-c3ccccn3)cc(C(=O)N3CCCC3)c2c1`, the cell number change was -10.5%. Also, under setting [2], the AC50 is 29.1 µM [falling, single point]. As for `c1ccc(-c2cc(-c3nnco3)c3ccccc3n2)nc1`, the concentration at half-maximal activity (AC50) under setting [2] was 0.731 µM [rising, single point]. Regarding `Cc1ccc(NC(=O)C2CCCN(S(=O)(=O)c3c(C)noc3C)C2)nc1` (stereo not drawn), the cell number change was -9.16%. Further, the AC50 under setting [2] is 2.06 µM [rising, single point]. `O=C(CCN1C(=O)/C(=C/c2ccc(F)cc2)SC1=S)Nc1cc([N+](=O)[O-])ccc1O`: the cell number change was 1.41%. In addition, under setting [1], the half-maximal activity concentration (AC50) is 6.51 µM [rising, single point]. Under setting [2], the AC50 is 6.51 µM [rising, single point]. Turning to `CC(C)(C)c1nc(C(C)(C)C)c(Br)c(=O)[nH]1`, the cell number change is -32.8%. Besides, under setting [1], the concentration at half-maximal activity (AC50) was 1.3 µM [falling, full curve, poor fit]. For the same compound, the half-maximal activity concentration (AC50) under setting [2] was 0.82 µM [falling, full curve]. As for `O=C(Oc1c(Br)cc(Br)c2cccnc12)N1CCCCC1`, the cell number change was 27.1%. Still for that read-out and setting: the value for `COc1ccc(S(=O)(=O)NCc2ccc(C(=O)NCCCN3CC(C)CC(C)C3)cc2)cc1` (stereo not drawn) was -10.6%. Consider `CC(=O)/C(=C/N(C)C)Sc1ccc(C)cc1`, for which the cell number change was -75.3%. Under setting [1], the AC50 is 7.31 µM [falling, partial curve, poor fit]. Besides, the half-maximal activity concentration (AC50) under setting [2] was 18.4 µM [falling, partial curve]. As to `Cc1c(Cl)ccc2c(C(=O)NC(C)c3ccncc3)cc(-c3ccncc3)nc12` (stereo not drawn), the cell number change was 88.6%. Under setting [1], the half-maximal activity concentration (AC50) is 6.51 µM [falling, single point].

As to `CC(C)N1C(=O)C2ON(c3ccccc3)C(c3cccs3)C2C1=O` (stereo not drawn), the cell number change amounted to 6.02%. The concentration at half-maximal activity (AC50) under setting [2] is 5.17 µM [falling, single point]. `O=C(c1ccccc1OCc1ccccc1Br)N1CCN(c2ncccn2)CC1`: the cell number change was determined as 0.842%. The concentration at half-maximal activity (AC50) under setting [2] was 8.2 µM [falling, partial curve]. As to `Cn1cc(C(=O)Nc2ccc3c(c2)CCC3)cn1`, the cell number change was -1.61%. In addition, the concentration at half-maximal activity (AC50) under setting [2] is 3.66 µM [rising, single point]. With `O=C(NCCC(=O)N1CCNC1=O)OCc1ccccc1`, the cell number change was -0.287%. Further, the concentration at half-maximal activity (AC50) under setting [2] is 6.51 µM [falling, single point].
